According to the supplement of paper PMC8166895:
Structures can show the parent of a compound that is named as a salt. The list shows a part of the results. Most entries show no effect beyond the scatter of the controls.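 A single-replicate pilot screen of approved drugs and clinical or known-target compounds measured melting temperature via differential scanning fluorimetry. Top stabilizing hits raised the melting point by 2 °C or more; negative shifts indicate destabilization.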

System: SARS-CoV-2 main protease (Mpro, nsp5)
Test: thermal shift ΔTm of Mpro relative to plate average Tm; higher = stronger thermal stabilization of Mpro (binding)
Settings: 10 µM; protein concentration 1 µM

| SMILES | thermal shift ΔTm of Mpro [°C] |
| --- | --- |
| CN(C)c1ccc(/C=C/C(=O)c2ccc(Br)s2)cc1 | 0.104 |
| Cn1c([N+](=O)[O-])cnc1COC(N)=O [Ronidazole] | 0.162 |
| CCN(c1cc(-c2ccc(CN3CCOCC3)cc2)cc(C(=O)NCc2c(C)cc(C)[nH]c2=O)c1C)C1CCOCC1 | -0.0379 |
| COc1cc(N2CCN(C(C)=O)CC2)ccc1Nc1ncc(Cl)c(Nc2ccc(N3CCN(C(C)=O)CC3)cc2OC)n1 | 0.0545 |
| COc1ccc(C(=O)NCc2ccc(OCCN(C)C)cc2)cc1OC [Itopride hydrochloride] | 0.149 |
| N[C@@H](C(=O)N[C@@H]1C(=O)N2C(C(=O)O)=C(Cl)CS[C@H]12)c1ccccc1 [Cefaclor monohydrate] | 0.0878 |
| CCCCCCCCCCCCCCCC[n+]1ccccc1 [Cetylpyridinium Chloride] | -0.444 |
| CCCCCCCCCCCCCCCC[n+]1ccccc1 [Cetylpyridinium chloride monohydrate] | -0.832 |
| COc1ccc(-c2cc(C(F)F)nn2-c2ccc(S(N)(=O)=O)cc2)cc1F [Deracoxib] | 0.0287 |
| S=C(N/N=C1/CCCc2cccnc21)N1CCN(c2ccccn2)CC1 | -0.073 |
| CC[C@@H]1/C=C(\C)C[C@H](C)C[C@H](OC)[C@H]2O[C@@](O)(C(=O)C(=O)N3CCCC[C@H]3C(=O)O[C@H](/C(C)=C/[C@@H]3CC[C@H](Cl)[C@H](OC)C3)[C@H](C)[C@@H](O)CC1=O)[C@H](C)C[C@@H]2OC [Pimecrolimus] | -0.585 |
| CCCN1CCO[C@@H]2c3cc(O)ccc3OC[C@H]21 | -0.726 |
| O=C(O)c1cc(N(Cc2ccccc2O)Cc2ccccc2O)ccc1O [lavendustin B] | -0.191 |
| Cc1ccc(-n2nccn2)c(C(=O)N2CCN(c3nc4cc(Cl)ccc4o3)CC[C@H]2C)c1 [Suvorexant (MK-4305)] | 0.0275 |
| OC[C@H]1O[C@@H](O[C@@H]2[C@@H](CO)OC(O)(CO)[C@H]2O)[C@H](O)[C@@H](O)[C@H]1O (mixture of isomers) [Lactulose] | 0.578 |
| CCCCC(=O)N(Cc1ccc(-c2ccccc2-c2nnn[nH]2)cc1)[C@H](C(=O)O)C(C)C.CCOC(=O)[C@H](C)C[C@@H](Cc1ccc(-c2ccccc2)cc1)NC(=O)CCC(=O)O | -0.15 |
| O=c1c(O[C@@H]2O[C@H](CO)[C@@H](O)[C@H](O)[C@H]2O[C@@H]2OC[C@@H](O)[C@H](O)[C@H]2O)c(-c2ccc(O)cc2)oc2cc(O)cc(O)c12 [Leucoside] | 0.085 |
| C=CC(=O)Nc1cc(Nc2nccc(-n3cc(CN(C)C)c(-c4ccccc4)n3)n2)c(OC)cc1N1CCOCC1 [Lazertinib] | 0.254 |
| Cc1cc(Nc2nc(N[C@@H](C)c3ncc(F)cn3)ncc2Cl)[nH]n1 | -0.0951 |
| CC(C)(C)Oc1cccc2nc(N)nc(N)c12 | 0.0308 |
| Nc1nc2[nH]cc(CCc3ccc(C(=O)N[C@@H](CCC(=O)O)C(=O)O)cc3)c2c(=O)[nH]1 [Pemetrexed disodium] | 0.224 |
| Nc1nc2[nH]cc(CCc3ccc(C(=O)N[C@@H](CCC(=O)O)C(=O)O)cc3)c2c(=O)[nH]1 [Pemetrexed Disodium Hydrate] | 0.0991 |
| Cc1ccc(S(=O)(=O)Nc2cc(-c3ccc(C#N)s3)ccc2C)cc1 | -0.069 |
| COCCc1ccc(OCC(O)CNC(C)C)cc1 (centres undefined) [Metoprolol Tartrate] | 0.0373 |
| CCN1CCN(Cc2ccc(Nc3ncc(F)c(-c4cc(F)c5nc(C)n(C(C)C)c5c4)n3)nc2)CC1 | -0.151 |

| SMILES | thermal shift ΔTm of Mpro [°C] |
| --- | --- |
| CCN1CCN(Cc2ccc(Nc3ncc(F)c(-c4cc(F)c5nc(C)n(C(C)C)c5c4)n3)nc2)CC1 [Abemaciclib] | 0.0109 |
| OCc1ccccn1 [2-(Hydroxymethyl)pyridine] | 0.152 |
| CN(C(=O)c1c(O)c2ccccc2n(C)c1=O)c1ccccc1 [Roquinimex] | 0.00769 |
| CC(C)Cc1ccc(C(C)C(=O)O)cc1 (centres undefined) [Ibuprofen] | 0.00174 |
| COc1ccc(CN2CCN(C(c3ccc(F)cc3)c3ccc(F)cc3)CC2)c(OC)c1OC [Lomerizine HCl] | -0.264 |
| O=C(c1cncc(Br)c1)N1CCC(N2CCCC2)CC1 | -0.158 |
| COc1ccc(C2=N[C@H](c3ccc(Cl)cc3)[C@H](c3ccc(Cl)cc3)N2C(=O)N2CCNC(=O)C2)c(OC(C)C)c1 [Nutlin-3b] | -0.232 |
| CN(C)CCCOc1ccc(-c2ccc3ncc4c(c3c2)n(C2CCOCC2)c(=O)n4C)cn1 | -0.0739 |
| Cc1cnc(C(=O)O)c[n+]1[O-] [Acipimox] | 0.0713 |
| O=c1c(O)c(-c2ccc(O)c(O)c2)oc2cc(O)cc(O)c12 [Quercetin] | -0.116 |
| O=c1c(O)c(-c2ccc(O)c(O)c2)oc2cc(O)cc(O)c12 [Quercetin Dihydrate] | -0.213 |
| O=C(OCCOCCO)c1ccccc1Nc1cccc(C(F)(F)F)c1 [Etofenamate] | -0.166 |
| CC1CCCC(C)N1 (centres undefined) [Lupetidin] | -0.154 |
| O=C(O)c1cc(I)ccc1NC(=O)[C@H](Cc1ccccc1)NCc1ccccc1 | 0.272 |
| NC(=O)[C@@H](N)CCCN=C(N)N [L-Argininamide dihydrochloride] | -0.0939 |
| NC(=O)[C@@H]1CC[C@H](c2ccc(OCc3ccccc3F)cc2)N1 | 0.0441 |
| Nc1c(S(=O)(=O)O)cc(S(=O)(=O)O)c2cccc(O)c12 [CaMKP Inhibitor] | 0.132 |
| C=C(c1ccc(C(=O)O)cc1)c1cc2c(cc1C)C(C)(C)CCC2(C)C [Bexarotene] | 0.0448 |
| C[C@]12CCC(=O)C(O)=C1CC[C@@H]1[C@@H]2CC[C@]2(C)C(=O)CC[C@@H]12 [Formestane] | -0.0669 |
| CN(C)CCCCC(=O)Nc1ccc(NC(=S)NC(=O)c2ccc(C(C)(C)C)cc2)cc1 [Tenovin-6] | -0.0514 |
| CC(C)(C)NCC(O)c1cc(O)cc(O)c1 (centres undefined) [Terbutaline Sulfate] | 0.448 |
| COc1cc2ncnc(Nc3ccccc3)c2cc1OC | 0.0986 |
| O=c1c2cc(O)c(O)cc2oc2c([C@@H]3O[C@H](CO)[C@@H](O)[C@H](O)[C@H]3O)c(O)cc(O)c12 [Isomangiferin] | 0.437 |
| NNC(=O)c1nn(Cc2ccc(Cl)cc2Cl)c2ccccc12 [Adjudin] | 0.148 |

Reprinted from the results shown (10 entries):

| SMILES | thermal shift ΔTm of Mpro [°C] |
| --- | --- |
| CC(C)Cc1ccc(C(C)C(=O)O)cc1 (centres undefined) [Ibuprofen] | 0.00174 |
| COc1ccc(CN2CCN(C(c3ccc(F)cc3)c3ccc(F)cc3)CC2)c(OC)c1OC [Lomerizine HCl] | -0.264 |
| O=C(c1cncc(Br)c1)N1CCC(N2CCCC2)CC1 | -0.158 |
| COc1ccc(C2=N[C@H](c3ccc(Cl)cc3)[C@H](c3ccc(Cl)cc3)N2C(=O)N2CCNC(=O)C2)c(OC(C)C)c1 [Nutlin-3b] | -0.232 |
| CN(C)CCCOc1ccc(-c2ccc3ncc4c(c3c2)n(C2CCOCC2)c(=O)n4C)cn1 | -0.0739 |
| Cc1cnc(C(=O)O)c[n+]1[O-] [Acipimox] | 0.0713 |
| O=c1c(O)c(-c2ccc(O)c(O)c2)oc2cc(O)cc(O)c12 [Quercetin] | -0.116 |
| O=c1c(O)c(-c2ccc(O)c(O)c2)oc2cc(O)cc(O)c12 [Quercetin Dihydrate] | -0.213 |
| O=C(OCCOCCO)c1ccccc1Nc1cccc(C(F)(F)F)c1 [Etofenamate] | -0.166 |
| CC1CCCC(C)N1 (centres undefined) [Lupetidin] | -0.154 |
